Results are given in words; binding and its absence hold for the method and conditions named. Binding seen in cells or lysates may run through a third protein. Here binding means that the protein was enriched with, or labelled near, the bait; the list need not be complete. For some assays here: A no says only that the protein was not detected with the bait.

In test [1] the target is T1, DinG-SPA (Bacillus subtilis) (UniProt P54394).
T1 sequence: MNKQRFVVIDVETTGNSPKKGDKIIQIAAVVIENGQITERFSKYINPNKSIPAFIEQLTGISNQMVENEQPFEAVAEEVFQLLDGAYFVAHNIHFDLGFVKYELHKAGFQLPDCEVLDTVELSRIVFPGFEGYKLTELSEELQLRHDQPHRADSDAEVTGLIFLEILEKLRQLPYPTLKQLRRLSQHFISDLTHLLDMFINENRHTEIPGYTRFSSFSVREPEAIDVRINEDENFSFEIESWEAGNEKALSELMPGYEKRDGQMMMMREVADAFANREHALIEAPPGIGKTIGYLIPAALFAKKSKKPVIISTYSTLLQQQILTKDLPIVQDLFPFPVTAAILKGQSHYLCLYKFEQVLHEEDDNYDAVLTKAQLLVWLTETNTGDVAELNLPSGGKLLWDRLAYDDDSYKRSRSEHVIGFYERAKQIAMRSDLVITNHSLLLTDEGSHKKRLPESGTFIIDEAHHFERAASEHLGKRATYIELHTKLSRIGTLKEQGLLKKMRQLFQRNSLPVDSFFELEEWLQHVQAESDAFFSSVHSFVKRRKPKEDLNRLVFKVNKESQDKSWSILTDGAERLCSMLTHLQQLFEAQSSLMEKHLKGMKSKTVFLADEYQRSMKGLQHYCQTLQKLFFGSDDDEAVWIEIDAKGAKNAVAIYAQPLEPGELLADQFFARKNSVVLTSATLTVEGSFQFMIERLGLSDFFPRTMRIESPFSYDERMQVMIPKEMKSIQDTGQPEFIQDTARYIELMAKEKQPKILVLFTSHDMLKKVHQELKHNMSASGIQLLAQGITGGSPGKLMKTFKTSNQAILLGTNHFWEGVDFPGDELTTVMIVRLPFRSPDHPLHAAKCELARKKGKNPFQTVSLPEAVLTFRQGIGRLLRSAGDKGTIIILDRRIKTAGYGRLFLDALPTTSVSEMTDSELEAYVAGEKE
Put plainly: affinity purification with mass spectrometry; Tap-tag: tandem affinity purification of C-terminal SPA fusions expressed from their original locus in B. subtilis; SDS-PAGE, Coomassie, bands identified by MALDI-TOF.

Test [2] deals with T2, PcrA-SPA (Bacillus subtilis) (UniProt O34580).
T2 sequence: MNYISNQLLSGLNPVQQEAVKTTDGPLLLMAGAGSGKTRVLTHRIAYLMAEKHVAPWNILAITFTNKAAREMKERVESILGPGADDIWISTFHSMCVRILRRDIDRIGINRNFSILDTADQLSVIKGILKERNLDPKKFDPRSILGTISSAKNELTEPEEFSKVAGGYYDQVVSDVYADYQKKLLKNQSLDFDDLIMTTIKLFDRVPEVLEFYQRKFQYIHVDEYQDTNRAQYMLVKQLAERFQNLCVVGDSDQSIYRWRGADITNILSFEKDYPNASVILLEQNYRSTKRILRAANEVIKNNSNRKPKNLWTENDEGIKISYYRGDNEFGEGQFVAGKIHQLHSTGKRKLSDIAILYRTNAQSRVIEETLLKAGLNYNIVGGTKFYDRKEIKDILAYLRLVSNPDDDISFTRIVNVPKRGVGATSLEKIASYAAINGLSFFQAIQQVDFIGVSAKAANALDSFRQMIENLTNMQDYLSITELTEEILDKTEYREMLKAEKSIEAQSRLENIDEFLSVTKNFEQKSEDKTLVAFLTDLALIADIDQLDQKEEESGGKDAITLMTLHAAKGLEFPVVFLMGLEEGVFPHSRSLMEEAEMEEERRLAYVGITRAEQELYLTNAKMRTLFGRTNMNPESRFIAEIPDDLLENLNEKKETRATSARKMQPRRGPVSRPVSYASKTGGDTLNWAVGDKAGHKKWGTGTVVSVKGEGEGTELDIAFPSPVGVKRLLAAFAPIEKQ
Described as above.

Test [3] concerns the target T3, RecG-SPA (Bacillus subtilis) (UniProt O34942).
T3 sequence: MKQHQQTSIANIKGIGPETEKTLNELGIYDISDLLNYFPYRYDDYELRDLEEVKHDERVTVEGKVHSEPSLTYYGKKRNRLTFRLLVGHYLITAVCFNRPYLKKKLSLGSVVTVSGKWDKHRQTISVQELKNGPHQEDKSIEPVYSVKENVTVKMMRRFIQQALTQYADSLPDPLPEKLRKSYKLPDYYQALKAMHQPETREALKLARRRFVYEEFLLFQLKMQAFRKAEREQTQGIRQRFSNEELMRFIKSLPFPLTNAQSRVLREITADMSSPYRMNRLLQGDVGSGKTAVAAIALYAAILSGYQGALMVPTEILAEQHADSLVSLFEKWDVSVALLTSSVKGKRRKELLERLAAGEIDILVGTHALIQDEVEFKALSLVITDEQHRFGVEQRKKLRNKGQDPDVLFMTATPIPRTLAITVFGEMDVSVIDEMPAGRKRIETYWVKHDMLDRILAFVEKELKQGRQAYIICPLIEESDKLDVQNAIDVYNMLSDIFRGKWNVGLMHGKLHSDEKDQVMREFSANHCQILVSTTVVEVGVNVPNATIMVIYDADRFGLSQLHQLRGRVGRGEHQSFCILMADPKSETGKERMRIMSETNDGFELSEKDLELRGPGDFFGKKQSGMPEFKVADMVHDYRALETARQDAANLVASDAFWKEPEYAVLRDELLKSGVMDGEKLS
The test is described as above.

Test [4] deals with T4, RecQ-SPA (Bacillus subtilis) (UniProt O34748).
T4 sequence: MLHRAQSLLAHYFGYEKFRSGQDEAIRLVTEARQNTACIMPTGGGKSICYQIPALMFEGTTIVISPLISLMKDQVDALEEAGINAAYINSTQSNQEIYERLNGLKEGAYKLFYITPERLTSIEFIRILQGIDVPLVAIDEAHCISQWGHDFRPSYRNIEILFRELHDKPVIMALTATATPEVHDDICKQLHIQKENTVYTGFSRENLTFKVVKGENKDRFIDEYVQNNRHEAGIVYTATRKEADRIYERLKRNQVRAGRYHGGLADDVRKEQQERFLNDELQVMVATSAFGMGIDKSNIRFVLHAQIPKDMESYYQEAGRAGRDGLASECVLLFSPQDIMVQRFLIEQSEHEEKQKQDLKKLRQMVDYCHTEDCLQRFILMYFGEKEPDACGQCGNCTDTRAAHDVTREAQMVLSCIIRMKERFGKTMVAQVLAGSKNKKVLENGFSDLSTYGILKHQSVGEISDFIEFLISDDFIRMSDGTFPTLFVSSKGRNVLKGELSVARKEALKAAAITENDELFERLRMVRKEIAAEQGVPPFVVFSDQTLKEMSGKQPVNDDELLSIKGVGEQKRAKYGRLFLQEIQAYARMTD
The test is described as above.

Test [5] has as its target T5, SSB-SPA (Bacillus subtilis) (UniProt P37455).
T5 sequence: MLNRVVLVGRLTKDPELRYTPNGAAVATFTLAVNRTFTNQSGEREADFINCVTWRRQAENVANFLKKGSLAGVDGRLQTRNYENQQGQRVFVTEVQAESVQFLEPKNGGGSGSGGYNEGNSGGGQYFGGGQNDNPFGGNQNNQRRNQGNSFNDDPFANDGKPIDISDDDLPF
Briefly: affinity purification with mass spectrometry; Tap-tag of SSB-SPA expressed from Pxyl at amyE beside wild-type SSB, cells grown with or without 0.2% D-xylose; control strain with wild-type ssb at amyE; SDS-PAGE, Coomassie, MALDI-TOF.

B1: Bacillus subtilis Single-Stranded DNA Binding protein (SSB), purified (natural protein, UniProt P37455 1-172, looked up)
chain: T5 sequence
notes: Used as a tetramer; source: E. coli, purified (procedure in Text S1)
Turning to B1, the binding result was “no binding” in test [1]; “no binding” in test [2]; “binds” in test [3]; “binds” in test [4]; “binds” in test [5].
